Source: ChEMBL document CHEMBL3988442, “University of Dundee, Small-Polar-MMV Screening Library” (2021).

The chains behind the UniProt entries cited, without tags or fusion partners. Residues count along the entry.
UniProt Q4DA54, 1-478: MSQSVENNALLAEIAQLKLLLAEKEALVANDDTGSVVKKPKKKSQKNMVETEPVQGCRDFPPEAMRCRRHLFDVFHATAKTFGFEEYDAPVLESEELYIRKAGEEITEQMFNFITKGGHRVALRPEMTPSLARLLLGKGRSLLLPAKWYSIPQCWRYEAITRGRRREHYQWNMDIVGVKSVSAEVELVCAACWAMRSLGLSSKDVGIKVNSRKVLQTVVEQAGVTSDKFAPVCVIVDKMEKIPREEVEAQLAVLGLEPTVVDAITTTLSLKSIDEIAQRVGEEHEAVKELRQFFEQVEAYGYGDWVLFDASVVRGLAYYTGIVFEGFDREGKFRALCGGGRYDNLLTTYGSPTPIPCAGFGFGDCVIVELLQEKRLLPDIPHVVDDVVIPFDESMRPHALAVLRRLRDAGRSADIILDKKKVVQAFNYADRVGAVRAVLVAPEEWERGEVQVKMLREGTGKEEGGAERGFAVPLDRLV

Values are the deposited “Percent Effect”, in %.
How 0% and 100% were set is not recorded. Most values in the screen are low, and negative values occur.
The compounds are a random part of those screened.
A dash means the value is not listed here; it may have been measured.

Toxoplasma: 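Assay of Toxoplasma gondii numbers, read through their beta-galactosidase reporter with a colour substrate. Concentration: 10 µM. Higher reads as fewer parasites (inferred from which compounds were picked for retests). Size under these conditions: about 67,000 compounds, about 260 of them at 50% or above in at least one test.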
TcHisRS: 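Histidine-tRNA ligase, Trypanosoma cruzi CL Brener (UniProt Q4DA54). Enzyme assay of histidyl-tRNA synthetase; the read-out is not stated. Concentration: 30 µM. Higher reads as stronger inhibition (inferred: compounds with an IC50 in retests scored well above the rest). Size under these conditions: about 69,000 compounds, about 31 of them at 50% or above in at least one test.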

| structure | Toxoplasma | TcHisRS |
|---|---|---|
| `O=C(CN1CCCC1Cn1cccn1)NC1CCN(C2CC2)CC1` (stereo unspecified) | 0.6844 | 4.124 |
| `COC(=O)c1ccc(N2CCN(CCS(C)(=O)=O)C(C)C2)cc1` (stereo unspecified) | -6.484 | 2.89 |
| `CN(Cc1nccn1CC(F)(F)F)C(=O)c1ccc2c(c1)OCO2` | 11.05 | 0 |
| `CC1CCCN(S(=O)(=O)N2CCOC3(CCCC3)C2)C1` (stereo unspecified) | -0.6882 | 2.381 |
| `CCc1ccc(C(=O)N2CCN(CC(O)CC)CC2)o1` (stereo unspecified) | 3.35 | 1.17 |
| `O=C(NC[C@]1(O)CN(Cc2ccccc2F)C[C@H]1O)c1ccccn1` | -3.61 | 6.452 |
| `O=C(O)Cc1nc2nccc(-c3ccc(F)cc3)n2n1` | 4.485 | -41.62 |
| `COc1cc(CCC(=O)NC(C)(C)C)ccc1OCC(F)(F)F` | -12.03 | 2.89 |
| `CCc1cnc(N2CC3(CCN(Cc4ccsc4)C3)C2)nc1.O=C(O)C(F)(F)F` | 7.996 | - |
| `O=C(O)C(F)(F)F.c1ncn(Cc2cnc3n2CCN(Cc2ccsc2)CC3)n1` | -1.387 | - |
| `O=S(=O)(Cc1ccccc1Cl)NCCCN1CCCC1` | -1.674 | 5.435 |
| `Cc1nc(NCc2ccco2)nc2c1COCC21CCNC1.O=C(O)C(F)(F)F` (stereo unspecified) | 21.87 | - |
| `Cc1nc(C)n(CC2CCCN2CCOc2ccccc2C#N)n1` (stereo unspecified) | 3.521 | 6.286 |
| `O=S(=O)(C1CC1)N1C[C@@H]2COC[C@]2(COc2ccccn2)C1` | - | 7.317 |
| `CS(=O)(=O)c1cc(S(N)(=O)=O)ccc1NCC1CCCO1` (stereo unspecified) | 32.19 | 7.212 |
| `CC(C)C1CN(C(=O)c2ccc3nccnc3c2)CCS1` (stereo unspecified) | -3.058 | 7.738 |
| `Cc1ccc(F)cc1C(=O)NCc1ccc(C(=O)O)o1` | 0.5299 | 4.211 |
| `Cc1ccc(NC2CCN(C(=O)c3sccc3C3CC3)CC2)nn1` | 14.49 | 5.714 |
| `COCc1cc(N2C[C@@H](C)[C@](O)(C3CC3)C2)ncn1` | 9.249 | -2.02 |
| `COc1ccccc1[C@@H]1CN(C(=O)Cc2csc(C)n2)C[C@H]1C(=O)O` | 3.813 | 2.116 |
| `Cn1cc(Br)c(=O)c(NS(=O)(=O)c2ccc(F)cc2)c1` | 0.4616 | -1.667 |
| `Cc1ccc(NC2CCN(C(=O)c3ccc(F)c(C)c3)CC2)nn1` | 8.551 | 2.286 |
| `CCC(OC)C(=O)NCC1CCN(c2cnn(C)c(=O)c2)CC1` (stereo unspecified) | 4.783 | 1.02 |
| `Cc1nnc(CN(Cc2ccc3c(c2)OCO3)C2CCCCC2)o1` | -10.24 | 8.14 |
| `COc1cccc(-c2c[nH]c(C3CCCN3)n2)c1.Cl.Cl` (stereo unspecified) | 4.423 | - |
| `Cc1cc(C[S+]([O-])CC(=O)NCc2cccs2)no1` (stereo unspecified) | 5.823 | 2.29 |
| `CCN(Cc1ccoc1)C(=O)Nc1ccccc1CN(C)C(C)=O` | -27.74 | 4.242 |
| `CN(C)C(=O)CN1CCC2(CC1)COC2` | -4.647 | 9.709 |
| `CCOc1ccc(C(=O)N2CCCC(n3nc(C)nc3C)C2)cc1` (stereo unspecified) | 33.92 | 3.207 |
| `Cc1nnc(CN(C)CC(=O)N2CCCC(C)CC2)n1C` (stereo unspecified) | 9.226 | 1.235 |
| `CCc1nnc(NC(=O)c2ccc(C3CCCN3CC(C)C)s2)s1` (stereo unspecified) | 0.4607 | 5.202 |
| `CN(CC(=O)N1CCCC1c1cnn(C)c1)Cc1ccccc1` (stereo unspecified) | 1.5 | 2.339 |
| `COCCO[C@H]1CCN(C(=O)c2cnoc2C)[C@H]1Cc1cnn(C)c1` | -8.854 | 5.102 |
| `Cc1cc2nc(C(C)C)cc(N3CCSCC3)n2n1` | 8.086 | 4.95 |
| `Cc1cccc(C(=O)NCCCN2CCN(c3ccccc3)CC2)c1` | -4.767 | 5.435 |
| `COC1CCN(S(=O)(=O)N2CC(c3ccccc3)C(C)(C)C2)CC1` (stereo unspecified) | -20.35 | 2.899 |
| `Cc1ccc2c(n1)N(C)CCN(C(=O)C1CC1)C2` | - | 7.027 |
| `O=C(c1ccc(Cl)s1)N1CC(c2nc(-c3ccc[nH]c3=O)no2)C1` | -7.465 | 1.031 |
| `COc1cccn(CC(=O)N2CCCC3(CCOCC3)C2)c1=O` | 12.4 | 9.901 |
| `O=c1cc(Cn2ccnc2)nc2n1CCCN(S(=O)(=O)C1CC1)C2` | -9.088 | 6.145 |
| `CC(C)n1cc(C(=O)NC2CCS(=O)(=O)C2)c2ccccc2c1=O` (stereo unspecified) | -20.74 | 2.97 |
| `CC(C)C(=O)N1CCC[C@]2(C(=O)N(C)C)CN(c3ccccn3)C[C@@H]2C1` | - | 6.667 |
| `O=C(O)C(F)(F)F.[H][C@]12CCN(S(=O)(=O)c3cccs3)C[C@@]1([H])OCCN(C(C)C)C2` | 9.636 | - |
| `Cc1nn(C)c2c(N3CCCC3)nc(C3CC3)nc12` | 10.42 | 6.736 |
| `CN(CC(=O)NCC(F)(F)F)Cc1cccc2c1OCCO2` | 6.622 | -1.19 |
| `CCc1[nH]nc(NC(=O)c2ccc(Cl)cn2)c1C` | 4.091 | 8.333 |
| `Cl.c1csc(-c2noc(C3CNC3)n2)c1` | 42.66 | - |
| `O=C(CCC1CCN(C2CSCCSC2)CC1)NCC1CCCO1` (stereo unspecified) | -6.369 | 5.128 |
| `O=C(CCCc1ccc(F)cc1)N1C[C@@H](CN2CCOCC2)[C@@H](CO)C1` | -0.8758 | 7.438 |
| `Cn1ccc(C(=O)NCc2cccc(CN3CCCC3)c2)cc1=O` | -2.113 | 3.422 |
| `Cc1cccc(-c2nc(C)nn2CC(=O)NCC(C)C)c1` | -3.54 | 4.942 |
| `CC(C)OCc1cccc(NC(=O)N2CCCC(CCC(N)=O)C2)c1` (stereo unspecified) | 1.444 | 10.34 |
| `Cc1cccc(C(=O)N2CCCC2)c1NCC(=O)NC(C)(C#N)C1CC1` (stereo unspecified) | -3.452 | 0.6369 |
| `CCC(CC)C(=O)N1CCOC2(COCCN(CC(=O)NC)C2)C1` (stereo unspecified) | - | 3.659 |
| `Cc1nc(-c2ccc(F)c(F)c2)cc(C2CCNCC2)n1.Cl` | 4.085 | - |
| `COc1ccc(OC)c(C(O)CN2CCC(N3CCC(C)CC3)CC2)c1` (stereo unspecified) | -37.71 | 4.478 |
| `Cc1noc(C)c1C(=O)N1CCCC1c1c(C)nn(C)c1C` (stereo unspecified) | -1.931 | 3.429 |
| `[H][C@@]12CCN(C(=O)C(C)(C)C)[C@]1([H])C(=O)N(c1ccc(F)cc1)C(=O)N2` | -1.467 | - |
| `O=C(NC(CO)CO)c1coc(COc2cccc(F)c2)n1` | 2.499 | -0.8475 |
| `CCC(C)(CC)NC(=O)COc1nn(C)c2nc(C)cc(C)c12` | -1.408 | 2.051 |
| `O=C1NCC[C@]12CN(Cc1ccco1)C[C@H]2c1ccccc1` | 0.507 | 7.65 |
| `O=C(Nc1ccc(-c2ccccc2)cn1)C1CCN(C(=O)C2CC2)CC1` | 0.141 | 3.061 |
| `Cc1cnn(CC2CN(Cc3nc(-c4ccoc4)no3)CCO2)c1` (stereo unspecified) | 7.524 | 0 |
| `C1CCN(CCOC2CCNCC2)CC1` | -3.851 | 7.843 |
| `CC(O)CN1CCC(CN(C)Cc2cc(C#N)ccc2F)CC1` (stereo unspecified) | 2.05 | 4.459 |
| `O=C(Cc1cccc(F)c1)NCCNCc1cccnc1` | -5.544 | 1.149 |
| `COCC(=O)N1CCC2(CC1)CC(N1CCOCC1)c1ccc(C)cc12` (stereo unspecified) | -9.942 | 5.806 |
| `Cc1cc(C)n(CCCC(=O)N2CC[C@H]3NCCC[C@]3(CO)C2)n1` | - | 3.704 |
| `CN(CCOCC1CC1)C(=O)Nc1ccc(C#N)c(Cl)c1` | -9.256 | 3.03 |
| `CC(C)(C)C(=O)NCCCn1cncn1` | 5.682 | 5 |
| `O=C(c1cncc(Br)c1)N1CCCc2ccc(F)cc21` | -25.74 | 13.58 |
| `CCc1ccc(CN(C(=O)CCn2cc(S(N)(=O)=O)cn2)C2CC2)cc1` | 1.285 | 4.972 |
| `CCS(=O)(=O)N1CCC(c2nnc(Cn3cccn3)n2C2CC2)CC1` | -5.06 | 4.065 |
| `NC(=O)c1ccc(N2CCN(CCCc3cn[nH]c3)CC2)cc1` | -11.92 | 2.646 |
| `CCc1nc(CN2CCOC(CN(C)c3cccnn3)C2)cs1` (stereo unspecified) | 1.506 | -0.8403 |

For reference, 7 entries once more:

structure,Toxoplasma,TcHisRS
Cc1cc2nc(C(C)C)cc(N3CCSCC3)n2n1,8.086,4.95
COC(=O)c1ccc(N2CCN(CCS(C)(=O)=O)C(C)C2)cc1 (stereo unspecified),-6.484,2.89
CCN(Cc1ccoc1)C(=O)Nc1ccccc1CN(C)C(C)=O,-27.74,4.242
Cc1cccc(-c2nc(C)nn2CC(=O)NCC(C)C)c1,-3.54,4.942
O=C(O)C(F)(F)F.c1ncn(Cc2cnc3n2CCN(Cc2ccsc2)CC3)n1,-1.387,-
Cc1ccc2c(n1)N(C)CCN(C(=O)C1CC1)C2,-,7.027
CCOc1ccc(C(=O)N2CCCC(n3nc(C)nc3C)C2)cc1 (stereo unspecified),33.92,3.207